Read-outs that look alike come from different tables or passages of the source. These are yes or no findings as the source states them, for the method shown. Binding seen in cells or lysates may run through a third protein. Some binding calls cover weakened binding; strength is not graded here. Where a sequence is shown, tags or fusion partners need not be part of it.

By UniProt entry, the sequences of proteins in these tests, tags left out.
UniProt Q99836: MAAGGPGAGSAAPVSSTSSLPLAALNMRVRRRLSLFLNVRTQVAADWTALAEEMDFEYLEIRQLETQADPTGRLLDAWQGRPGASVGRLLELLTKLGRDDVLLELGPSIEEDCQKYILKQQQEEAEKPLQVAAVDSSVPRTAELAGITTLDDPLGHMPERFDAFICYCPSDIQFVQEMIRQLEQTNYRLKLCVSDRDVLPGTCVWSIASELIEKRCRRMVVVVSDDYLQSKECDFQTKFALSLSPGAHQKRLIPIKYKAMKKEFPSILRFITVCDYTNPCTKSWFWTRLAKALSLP

The values below come from paper doi:10.1101/2022.10.09.511391.

Holding throughout (experiment): co-IP
The target in assay [1] is T1, HA-Fli1 (pcDNA3-HA-Fli1, full-length mouse Fli1) (mouse) (UniProt Q9JJ28).
T1 sequence: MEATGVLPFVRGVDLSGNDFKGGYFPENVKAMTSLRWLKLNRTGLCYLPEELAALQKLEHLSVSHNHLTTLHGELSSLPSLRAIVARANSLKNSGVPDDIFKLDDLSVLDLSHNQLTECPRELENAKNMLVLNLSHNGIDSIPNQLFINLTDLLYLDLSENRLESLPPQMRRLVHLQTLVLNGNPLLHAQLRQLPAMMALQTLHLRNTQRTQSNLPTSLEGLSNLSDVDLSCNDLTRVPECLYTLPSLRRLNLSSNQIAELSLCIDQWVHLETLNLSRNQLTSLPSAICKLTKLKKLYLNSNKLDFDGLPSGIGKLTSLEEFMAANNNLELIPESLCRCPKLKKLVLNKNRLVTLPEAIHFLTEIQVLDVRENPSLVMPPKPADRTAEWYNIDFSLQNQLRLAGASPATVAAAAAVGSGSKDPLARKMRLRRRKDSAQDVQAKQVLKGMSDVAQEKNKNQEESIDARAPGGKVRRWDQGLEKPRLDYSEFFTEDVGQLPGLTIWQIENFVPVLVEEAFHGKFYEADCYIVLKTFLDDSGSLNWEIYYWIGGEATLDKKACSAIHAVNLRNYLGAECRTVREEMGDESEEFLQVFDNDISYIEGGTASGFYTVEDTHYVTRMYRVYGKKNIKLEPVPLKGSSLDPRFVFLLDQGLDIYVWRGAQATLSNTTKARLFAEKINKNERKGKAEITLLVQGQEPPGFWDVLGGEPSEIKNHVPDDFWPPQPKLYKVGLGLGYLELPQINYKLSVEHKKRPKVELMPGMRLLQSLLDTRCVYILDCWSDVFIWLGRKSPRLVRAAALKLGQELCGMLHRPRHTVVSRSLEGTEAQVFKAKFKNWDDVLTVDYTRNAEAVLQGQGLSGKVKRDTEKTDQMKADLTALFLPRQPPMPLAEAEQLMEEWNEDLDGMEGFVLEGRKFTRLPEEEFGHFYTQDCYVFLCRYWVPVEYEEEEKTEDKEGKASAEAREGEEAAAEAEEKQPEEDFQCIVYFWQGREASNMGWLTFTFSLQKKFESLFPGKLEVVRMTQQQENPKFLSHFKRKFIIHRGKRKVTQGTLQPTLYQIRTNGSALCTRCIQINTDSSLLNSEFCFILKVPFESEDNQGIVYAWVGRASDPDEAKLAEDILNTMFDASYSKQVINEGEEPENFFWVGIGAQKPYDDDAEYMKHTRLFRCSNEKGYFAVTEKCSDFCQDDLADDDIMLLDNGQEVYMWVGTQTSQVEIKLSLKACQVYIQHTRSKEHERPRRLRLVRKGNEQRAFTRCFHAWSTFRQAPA

The target of assay [2] is HA-Fli1-LRR (HA-tagged Fli1 N-terminal 400 amino acids) (UniProt Q9JJ28).
The target in assay [3] is T1, HA-Fli1 (pcDNA3-HA-Fli1, full-length mouse Fli1) (mouse). This is another data set of the same source.
The target in a further assay is T2, Flag-TRB3 (UniProt Q8K4K2).
T2 sequence: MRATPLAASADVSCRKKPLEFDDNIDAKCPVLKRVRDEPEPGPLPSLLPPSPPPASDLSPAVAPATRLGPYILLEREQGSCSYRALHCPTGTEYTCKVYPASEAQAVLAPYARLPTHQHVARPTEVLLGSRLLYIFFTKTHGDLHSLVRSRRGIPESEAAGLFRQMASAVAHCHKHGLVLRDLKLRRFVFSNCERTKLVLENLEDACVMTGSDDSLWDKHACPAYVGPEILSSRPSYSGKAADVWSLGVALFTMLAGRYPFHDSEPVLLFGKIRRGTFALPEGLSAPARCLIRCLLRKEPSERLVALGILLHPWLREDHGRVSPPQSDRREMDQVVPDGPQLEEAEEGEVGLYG

Take Myc-MyD88 (from UniProt Q99836 1-296): in assay [1], the binding entry is listed as “binds”.

B1: Flag-TRB3 (protein, UniProt Q8K4K2 1-354)
chain: MRATPLAASADVSCRKKPLEFDDNIDAKCPVLKRVRDEPEPGPLPSLLPPSPPPASDLSPAVAPATRLGPYILLEREQGSCSYRALHCPTGTEYTCKVYPASEAQAVLAPYARLPTHQHVARPTEVLLGSRLLYIFFTKTHGDLHSLVRSRRGIPESEAAGLFRQMASAVAHCHKHGLVLRDLKLRRFVFSNCERTKLVLENLEDACVMTGSDDSLWDKHACPAYVGPEILSSRPSYSGKAADVWSLGVALFTMLAGRYPFHDSEPVLLFGKIRRGTFALPEGLSAPARCLIRCLLRKEPSERLVALGILLHPWLREDHGRVSPPQSDRREMDQVVPDGPQLEEAEEGEVGLYG
B1: in assay [2], the binding result is given as “binds”.

B2: Myc-TRB3 (protein, UniProt Q8K4K2 1-354)
chain: MRATPLAASADVSCRKKPLEFDDNIDAKCPVLKRVRDEPEPGPLPSLLPPSPPPASDLSPAVAPATRLGPYILLEREQGSCSYRALHCPTGTEYTCKVYPASEAQAVLAPYARLPTHQHVARPTEVLLGSRLLYIFFTKTHGDLHSLVRSRRGIPESEAAGLFRQMASAVAHCHKHGLVLRDLKLRRFVFSNCERTKLVLENLEDACVMTGSDDSLWDKHACPAYVGPEILSSRPSYSGKAADVWSLGVALFTMLAGRYPFHDSEPVLLFGKIRRGTFALPEGLSAPARCLIRCLLRKEPSERLVALGILLHPWLREDHGRVSPPQSDRREMDQVVPDGPQLEEAEEGEVGLYG
B2: the binding result in assay [3] is on record as “binds”.

B3: HA-TRB3 (protein, UniProt Q8K4K2 1-354)
chain: MRATPLAASADVSCRKKPLEFDDNIDAKCPVLKRVRDEPEPGPLPSLLPPSPPPASDLSPAVAPATRLGPYILLEREQGSCSYRALHCPTGTEYTCKVYPASEAQAVLAPYARLPTHQHVARPTEVLLGSRLLYIFFTKTHGDLHSLVRSRRGIPESEAAGLFRQMASAVAHCHKHGLVLRDLKLRRFVFSNCERTKLVLENLEDACVMTGSDDSLWDKHACPAYVGPEILSSRPSYSGKAADVWSLGVALFTMLAGRYPFHDSEPVLLFGKIRRGTFALPEGLSAPARCLIRCLLRKEPSERLVALGILLHPWLREDHGRVSPPQSDRREMDQVVPDGPQLEEAEEGEVGLYG
Consider B3, for which the binding result in assay [3] is listed as “binds”.

B4: Flightless-homolog 1 (Fli1), endogenous in Min6 cells (protein, UniProt Q9JJ28 1-1271)
chain: MEATGVLPFVRGVDLSGNDFKGGYFPENVKAMTSLRWLKLNRTGLCYLPEELAALQKLEHLSVSHNHLTTLHGELSSLPSLRAIVARANSLKNSGVPDDIFKLDDLSVLDLSHNQLTECPRELENAKNMLVLNLSHNGIDSIPNQLFINLTDLLYLDLSENRLESLPPQMRRLVHLQTLVLNGNPLLHAQLRQLPAMMALQTLHLRNTQRTQSNLPTSLEGLSNLSDVDLSCNDLTRVPECLYTLPSLRRLNLSSNQIAELSLCIDQWVHLETLNLSRNQLTSLPSAICKLTKLKKLYLNSNKLDFDGLPSGIGKLTSLEEFMAANNNLELIPESLCRCPKLKKLVLNKNRLVTLPEAIHFLTEIQVLDVRENPSLVMPPKPADRTAEWYNIDFSLQNQLRLAGASPATVAAAAAVGSGSKDPLARKMRLRRRKDSAQDVQAKQVLKGMSDVAQEKNKNQEESIDARAPGGKVRRWDQGLEKPRLDYSEFFTEDVGQLPGLTIWQIENFVPVLVEEAFHGKFYEADCYIVLKTFLDDSGSLNWEIYYWIGGEATLDKKACSAIHAVNLRNYLGAECRTVREEMGDESEEFLQVFDNDISYIEGGTASGFYTVEDTHYVTRMYRVYGKKNIKLEPVPLKGSSLDPRFVFLLDQGLDIYVWRGAQATLSNTTKARLFAEKINKNERKGKAEITLLVQGQEPPGFWDVLGGEPSEIKNHVPDDFWPPQPKLYKVGLGLGYLELPQINYKLSVEHKKRPKVELMPGMRLLQSLLDTRCVYILDCWSDVFIWLGRKSPRLVRAAALKLGQELCGMLHRPRHTVVSRSLEGTEAQVFKAKFKNWDDVLTVDYTRNAEAVLQGQGLSGKVKRDTEKTDQMKADLTALFLPRQPPMPLAEAEQLMEEWNEDLDGMEGFVLEGRKFTRLPEEEFGHFYTQDCYVFLCRYWVPVEYEEEEKTEDKEGKASAEAREGEEAAAEAEEKQPEEDFQCIVYFWQGREASNMGWLTFTFSLQKKFESLFPGKLEVVRMTQQQENPKFLSHFKRKFIIHRGKRKVTQGTLQPTLYQIRTNGSALCTRCIQINTDSSLLNSEFCFILKVPFESEDNQGIVYAWVGRASDPDEAKLAEDILNTMFDASYSKQVINEGEEPENFFWVGIGAQKPYDDDAEYMKHTRLFRCSNEKGYFAVTEKCSDFCQDDLADDDIMLLDNGQEVYMWVGTQTSQVEIKLSLKACQVYIQHTRSKEHERPRRLRLVRKGNEQRAFTRCFHAWSTFRQAPA
Take B4: in the assay with Flag-TRB3, the binding entry is listed as “binds”.
